Source: ChEMBL document CHEMBL5444388, “Affinity Phenotypic Cellular Literature for EUbOPEN Chemogenomic Library” (2024)
This continues a long series; more values of the same kind are listed elsewhere.

Sequences of proteins named here, by UniProt entry; tags and fusion partners are left off. A change or cut given only in a name is not applied to a line headed by its entry.
UniProt Q02224: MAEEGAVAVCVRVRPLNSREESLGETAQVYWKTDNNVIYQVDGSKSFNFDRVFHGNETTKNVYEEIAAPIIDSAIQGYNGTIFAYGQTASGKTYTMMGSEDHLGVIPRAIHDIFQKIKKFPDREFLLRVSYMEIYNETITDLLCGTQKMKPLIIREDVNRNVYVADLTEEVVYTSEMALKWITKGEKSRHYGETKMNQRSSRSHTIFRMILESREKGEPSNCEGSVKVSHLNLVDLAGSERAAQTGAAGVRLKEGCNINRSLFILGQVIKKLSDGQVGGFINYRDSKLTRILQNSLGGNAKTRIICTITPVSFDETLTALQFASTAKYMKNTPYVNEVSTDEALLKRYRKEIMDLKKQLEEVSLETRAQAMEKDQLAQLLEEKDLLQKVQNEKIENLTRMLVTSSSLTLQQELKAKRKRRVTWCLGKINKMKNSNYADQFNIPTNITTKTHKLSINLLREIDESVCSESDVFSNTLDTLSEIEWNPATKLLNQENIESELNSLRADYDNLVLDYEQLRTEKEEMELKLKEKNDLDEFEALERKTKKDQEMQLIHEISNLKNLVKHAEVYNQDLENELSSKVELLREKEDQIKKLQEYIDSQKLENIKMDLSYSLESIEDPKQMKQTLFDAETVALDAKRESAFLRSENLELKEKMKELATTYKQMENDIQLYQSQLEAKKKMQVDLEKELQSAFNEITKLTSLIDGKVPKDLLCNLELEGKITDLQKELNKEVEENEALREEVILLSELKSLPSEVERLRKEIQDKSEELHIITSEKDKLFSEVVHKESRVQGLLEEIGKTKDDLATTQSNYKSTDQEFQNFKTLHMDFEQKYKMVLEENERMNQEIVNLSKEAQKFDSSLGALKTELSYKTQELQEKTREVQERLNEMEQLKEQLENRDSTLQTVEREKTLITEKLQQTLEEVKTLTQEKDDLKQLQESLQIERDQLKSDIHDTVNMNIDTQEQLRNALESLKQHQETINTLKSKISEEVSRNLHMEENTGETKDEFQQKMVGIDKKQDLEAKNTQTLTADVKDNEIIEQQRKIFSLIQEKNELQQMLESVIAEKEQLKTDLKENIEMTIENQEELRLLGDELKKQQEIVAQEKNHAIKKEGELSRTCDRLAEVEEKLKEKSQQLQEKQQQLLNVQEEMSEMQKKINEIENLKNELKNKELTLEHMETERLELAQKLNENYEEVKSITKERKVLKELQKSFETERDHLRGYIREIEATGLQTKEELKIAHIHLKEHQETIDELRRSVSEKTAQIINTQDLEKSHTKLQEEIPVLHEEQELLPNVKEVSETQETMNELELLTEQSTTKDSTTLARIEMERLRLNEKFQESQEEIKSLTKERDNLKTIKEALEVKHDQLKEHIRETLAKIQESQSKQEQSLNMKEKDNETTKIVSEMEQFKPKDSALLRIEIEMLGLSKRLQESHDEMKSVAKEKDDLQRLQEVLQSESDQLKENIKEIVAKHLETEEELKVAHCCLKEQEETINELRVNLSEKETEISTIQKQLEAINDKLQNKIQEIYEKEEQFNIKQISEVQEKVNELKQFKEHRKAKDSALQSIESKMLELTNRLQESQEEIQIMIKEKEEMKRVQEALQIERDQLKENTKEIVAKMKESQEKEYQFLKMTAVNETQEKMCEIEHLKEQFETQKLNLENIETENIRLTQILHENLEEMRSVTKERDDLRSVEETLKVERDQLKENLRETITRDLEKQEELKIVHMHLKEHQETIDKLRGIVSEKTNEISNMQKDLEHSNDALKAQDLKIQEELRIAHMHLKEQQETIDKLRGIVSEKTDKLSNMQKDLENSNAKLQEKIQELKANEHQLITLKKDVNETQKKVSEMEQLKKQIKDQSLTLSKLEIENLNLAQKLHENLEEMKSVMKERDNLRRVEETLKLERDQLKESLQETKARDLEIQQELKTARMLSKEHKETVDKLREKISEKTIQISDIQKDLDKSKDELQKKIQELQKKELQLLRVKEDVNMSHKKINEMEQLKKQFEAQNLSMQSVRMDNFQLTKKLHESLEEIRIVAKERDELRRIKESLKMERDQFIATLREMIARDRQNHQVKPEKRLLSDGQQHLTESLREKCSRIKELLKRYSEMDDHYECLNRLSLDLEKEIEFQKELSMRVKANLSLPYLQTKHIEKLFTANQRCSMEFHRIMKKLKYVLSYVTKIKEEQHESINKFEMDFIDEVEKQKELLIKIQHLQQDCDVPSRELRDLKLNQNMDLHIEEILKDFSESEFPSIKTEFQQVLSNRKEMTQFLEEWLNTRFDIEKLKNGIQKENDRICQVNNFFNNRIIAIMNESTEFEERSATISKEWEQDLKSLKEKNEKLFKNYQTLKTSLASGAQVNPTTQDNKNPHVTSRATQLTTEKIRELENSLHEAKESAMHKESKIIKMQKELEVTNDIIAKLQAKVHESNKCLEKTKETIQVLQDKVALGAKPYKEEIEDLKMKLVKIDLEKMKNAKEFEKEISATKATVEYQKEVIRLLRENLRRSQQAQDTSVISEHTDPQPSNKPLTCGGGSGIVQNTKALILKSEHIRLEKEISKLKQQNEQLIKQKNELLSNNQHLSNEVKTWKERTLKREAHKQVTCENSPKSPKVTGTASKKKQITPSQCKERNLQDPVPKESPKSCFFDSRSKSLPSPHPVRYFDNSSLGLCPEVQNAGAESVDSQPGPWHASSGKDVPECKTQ

Experiments:
Assay type in all cases: functional, cell-based
Set-up in all cases: recommended concentration 100 nM
[1] = target: Centromere-associated protein E (Homo sapiens) (UniProt Q02224); assay: Affinity Phenotypic Cellular interaction: (Cell-growth inhibition assays (growth inhibitory effect colon cancer cell line 5637)) EUB0000734a CENPE; details: Affinity Phenotypic Cellular Source Knowledge https://pubmed.ncbi.nlm.nih.gov/20167803/
[2] = target: Centromere-associated protein E (Homo sapiens) (UniProt Q02224); assay: Affinity Phenotypic Cellular interaction: (Cell-growth inhibition assays (growth inhibitory effect colon cancer cell line A101D)) EUB0000734a CENPE; details: Affinity Phenotypic Cellular Source Knowledge https://pubmed.ncbi.nlm.nih.gov/20167803/
[3] = target: Centromere-associated protein E (Homo sapiens) (UniProt Q02224); assay: Affinity Phenotypic Cellular interaction: (Cell-growth inhibition assays (growth inhibitory effect colon cancer cell line A-431)) EUB0000734a CENPE; details: Affinity Phenotypic Cellular Source Knowledge https://pubmed.ncbi.nlm.nih.gov/20167803/
[4] = target: Centromere-associated protein E (Homo sapiens) (UniProt Q02224); assay: Affinity Phenotypic Cellular interaction: (Cell-growth inhibition assays (growth inhibitory effect prostate cancer cell line BM1604)) EUB0000734a CENPE; details: BM-1604, Affinity Phenotypic Cellular Source Knowledge https://pubmed.ncbi.nlm.nih.gov/20167803/
[5] = target: Centromere-associated protein E (Homo sapiens) (UniProt Q02224); assay: Affinity Phenotypic Cellular interaction: (Cell-growth inhibition assays (growth inhibitory effect melanoma cancer cell line C32TG)) EUB0000734a CENPE; details: Affinity Phenotypic Cellular Source Knowledge https://pubmed.ncbi.nlm.nih.gov/20167803/
[6] = target: Centromere-associated protein E (Homo sapiens) (UniProt Q02224); assay: Affinity Phenotypic Cellular interaction: (Cell-growth inhibition assays (growth inhibitory effect colon cancer cell line C-33A)) EUB0000734a CENPE; details: Affinity Phenotypic Cellular Source Knowledge https://pubmed.ncbi.nlm.nih.gov/20167803/
[7] = target: Centromere-associated protein E (Homo sapiens) (UniProt Q02224); assay: Affinity Phenotypic Cellular interaction: (Cell-growth inhibition assays (growth inhibitory effect colon cancer cell line CAL27)) EUB0000734a CENPE; details: CAL-27, Affinity Phenotypic Cellular Source Knowledge https://pubmed.ncbi.nlm.nih.gov/20167803/
[8] = target: Centromere-associated protein E (Homo sapiens) (UniProt Q02224); assay: Affinity Phenotypic Cellular interaction: (Cell-growth inhibition assays (growth inhibitory effect colon cancer cell line CHL-1)) EUB0000734a CENPE; details: Affinity Phenotypic Cellular Source Knowledge https://pubmed.ncbi.nlm.nih.gov/20167803/
[9] = target: Centromere-associated protein E (Homo sapiens) (UniProt Q02224); assay: Affinity Phenotypic Cellular interaction: (Cell-growth inhibition assays (growth inhibitory effect colon cancer cell line HepG2)) EUB0000734a CENPE; details: Affinity Phenotypic Cellular Source Knowledge https://pubmed.ncbi.nlm.nih.gov/20167803/
[10] = target: Centromere-associated protein E (Homo sapiens) (UniProt Q02224); assay: Affinity Phenotypic Cellular interaction: (Cell-growth inhibition assays (growth inhibitory effect colon cancer cell line HMCB)) EUB0000734a CENPE; details: Affinity Phenotypic Cellular Source Knowledge https://pubmed.ncbi.nlm.nih.gov/20167803/
[11] = target: Centromere-associated protein E (Homo sapiens) (UniProt Q02224); assay: Affinity Phenotypic Cellular interaction: (Cell-growth inhibition assays (growth inhibitory effect colon cancer cell line HuP-T4)) EUB0000734a CENPE; details: Affinity Phenotypic Cellular Source Knowledge https://pubmed.ncbi.nlm.nih.gov/20167803/
[12] = target: Centromere-associated protein E (Homo sapiens) (UniProt Q02224); assay: Affinity Phenotypic Cellular interaction: (Cell-growth inhibition assays (growth inhibitory effect colon cancer cell line HuT78)) EUB0000734a CENPE; details: Affinity Phenotypic Cellular Source Knowledge https://pubmed.ncbi.nlm.nih.gov/20167803/
[13] = target: Centromere-associated protein E (Homo sapiens) (UniProt Q02224); assay: Affinity Phenotypic Cellular interaction: (Cell-growth inhibition assays (growth inhibitory effect breast cancer cell line KPL-1)) EUB0000734a CENPE; details: Affinity Phenotypic Cellular Source Knowledge https://pubmed.ncbi.nlm.nih.gov/20167803/
[14] = target: Centromere-associated protein E (Homo sapiens) (UniProt Q02224); assay: Affinity Phenotypic Cellular interaction: (Cell-growth inhibition assays (growth inhibitory effect colon cancer cell line MDA-MB-175-VII)) EUB0000734a CENPE; details: Affinity Phenotypic Cellular Source Knowledge https://pubmed.ncbi.nlm.nih.gov/20167803/
[15] = target: Centromere-associated protein E (Homo sapiens) (UniProt Q02224); assay: Affinity Phenotypic Cellular interaction: (Cell-growth inhibition assays (growth inhibitory effect colon cancer cell line MDA-MB-453)) EUB0000734a CENPE; details: Affinity Phenotypic Cellular Source Knowledge https://pubmed.ncbi.nlm.nih.gov/20167803/
[16] = target: Centromere-associated protein E (Homo sapiens) (UniProt Q02224); assay: Affinity Phenotypic Cellular interaction: (Cell-growth inhibition assays (growth inhibitory effect colon cancer cell line MDA-MB-468)) EUB0000734a CENPE; details: Affinity Phenotypic Cellular Source Knowledge https://pubmed.ncbi.nlm.nih.gov/20167803/
[17] = target: Centromere-associated protein E (Homo sapiens) (UniProt Q02224); assay: Affinity Phenotypic Cellular interaction: (Cell-growth inhibition assays (growth inhibitory effect lymphoma cancer cell line MJ)) EUB0000734a CENPE; details: Affinity Phenotypic Cellular Source Knowledge https://pubmed.ncbi.nlm.nih.gov/20167803/
[18] = target: Centromere-associated protein E (Homo sapiens) (UniProt Q02224); assay: Affinity Phenotypic Cellular interaction: (Cell-growth inhibition assays (growth inhibitory effect colon cancer cell line NCI-H157)) EUB0000734a CENPE; details: Affinity Phenotypic Cellular Source Knowledge https://pubmed.ncbi.nlm.nih.gov/20167803/
[19] = target: Centromere-associated protein E (Homo sapiens) (UniProt Q02224); assay: Affinity Phenotypic Cellular interaction: (Cell-growth inhibition assays (growth inhibitory effect colon cancer cell line NCI-H2170)) EUB0000734a CENPE; details: Affinity Phenotypic Cellular Source Knowledge https://pubmed.ncbi.nlm.nih.gov/20167803/
[20] = target: Centromere-associated protein E (Homo sapiens) (UniProt Q02224); assay: Affinity Phenotypic Cellular interaction: (Cell-growth inhibition assays (growth inhibitory effect colon cancer cell line NCI-H508)) EUB0000734a CENPE; details: Affinity Phenotypic Cellular Source Knowledge https://pubmed.ncbi.nlm.nih.gov/20167803/
[21] = target: Centromere-associated protein E (Homo sapiens) (UniProt Q02224); assay: Affinity Phenotypic Cellular interaction: (Cell-growth inhibition assays (growth inhibitory effect colon cancer cell line NCI-H526)) EUB0000734a CENPE; details: Affinity Phenotypic Cellular Source Knowledge https://pubmed.ncbi.nlm.nih.gov/20167803/
[22] = target: Centromere-associated protein E (Homo sapiens) (UniProt Q02224); assay: Affinity Phenotypic Cellular interaction: (Cell-growth inhibition assays (growth inhibitory effect colon cancer cell line NCI-N87)) EUB0000734a CENPE; details: Affinity Phenotypic Cellular Source Knowledge https://pubmed.ncbi.nlm.nih.gov/20167803/
[23] = target: Centromere-associated protein E (Homo sapiens) (UniProt Q02224); assay: Affinity Phenotypic Cellular interaction: (Cell-growth inhibition assays (growth inhibitory effect colon cancer cell line RL95-2)) EUB0000734a CENPE; details: Affinity Phenotypic Cellular Source Knowledge https://pubmed.ncbi.nlm.nih.gov/20167803/
[24] = target: Centromere-associated protein E (Homo sapiens) (UniProt Q02224); assay: Affinity Phenotypic Cellular interaction: (Cell-growth inhibition assays (growth inhibitory effect colon cancer cell line SK-N-AS)) EUB0000734a CENPE; details: Affinity Phenotypic Cellular Source Knowledge https://pubmed.ncbi.nlm.nih.gov/20167803/
[25] = target: Centromere-associated protein E (Homo sapiens) (UniProt Q02224); assay: Affinity Phenotypic Cellular interaction: (Cell-growth inhibition assays (growth inhibitory effect colon cancer cell line SK-N-DZ)) EUB0000734a CENPE; details: Affinity Phenotypic Cellular Source Knowledge https://pubmed.ncbi.nlm.nih.gov/20167803/
[26] = target: Centromere-associated protein E (Homo sapiens) (UniProt Q02224); assay: Affinity Phenotypic Cellular interaction: (Cell-growth inhibition assays (growth inhibitory effect neuroblastoma cancer cell line SK-N-F1)) EUB0000734a CENPE; details: SK-N-FI, Affinity Phenotypic Cellular Source Knowledge https://pubmed.ncbi.nlm.nih.gov/20167803/
[27] = target: Centromere-associated protein E (Homo sapiens) (UniProt Q02224); assay: Affinity Phenotypic Cellular interaction: (Cell-growth inhibition assays (growth inhibitory effect colon cancer cell line SNU-1)) EUB0000734a CENPE; details: SNU1, Affinity Phenotypic Cellular Source Knowledge https://pubmed.ncbi.nlm.nih.gov/20167803/
[28] = target: Centromere-associated protein E (Homo sapiens) (UniProt Q02224); assay: Affinity Phenotypic Cellular interaction: (Cell-growth inhibition assays (growth inhibitory effect colon cancer cell line SNU-387)) EUB0000734a CENPE; details: Affinity Phenotypic Cellular Source Knowledge https://pubmed.ncbi.nlm.nih.gov/20167803/
[29] = target: Centromere-associated protein E (Homo sapiens) (UniProt Q02224); assay: Affinity Phenotypic Cellular interaction: (Cell-growth inhibition assays (growth inhibitory effect colon cancer cell line SNU-5)) EUB0000734a CENPE; details: Affinity Phenotypic Cellular Source Knowledge https://pubmed.ncbi.nlm.nih.gov/20167803/
[30] = target: Centromere-associated protein E (Homo sapiens) (UniProt Q02224); assay: Affinity Phenotypic Cellular interaction: (Cell-growth inhibition assays (growth inhibitory effect colon cancer cell line ST486)) EUB0000734a CENPE; details: Affinity Phenotypic Cellular Source Knowledge https://pubmed.ncbi.nlm.nih.gov/20167803/
[31] = target: Centromere-associated protein E (Homo sapiens) (UniProt Q02224); assay: Affinity Phenotypic Cellular interaction: (Cell-growth inhibition assays (growth inhibitory effect colon cancer cell line SW780)) EUB0000734a CENPE; details: Affinity Phenotypic Cellular Source Knowledge https://pubmed.ncbi.nlm.nih.gov/20167803/

SMILES: CC(C)Oc1ccc(C(=O)N[C@H](CNC(=O)CN(C)C)Cc2ccc(-c3cn4cccc([C@H](C)O)c4n3)cc2)cc1Cl
- GIC50 [1]: 23 nM
- GIC50 [2]: 17 nM
- GIC50 [3]: 21 nM
- GIC50 [4]: 40 nM
- GIC50 [5]: 28 nM
- GIC50 [6]: 47 nM
- GIC50 [7]: 47 nM
- GIC50 [8]: 24 nM
- GIC50 [9]: 31 nM
- GIC50 [10]: 25 nM
- GIC50 [11]: 158 nM
- GIC50 [12]: 40 nM
- GIC50 [13]: 31 nM
- GIC50 [14]: 23 nM
- GIC50 [15]: 27 nM
- GIC50 [16]: 25 nM
- GIC50 [17]: 50 nM
- GIC50 [18]: 37 nM
- GIC50 [19]: 25 nM
- GIC50 [20]: 32 nM
- GIC50 [21]: 88 nM
- GIC50 [22]: 29 nM
- GIC50 [23]: 49 nM
- GIC50 [24]: 38 nM
- GIC50 [25]: 69 nM
- GIC50 [26]: 120 nM
- GIC50 [27]: 10 µM
- GIC50 [28]: 32 nM
- GIC50 [29]: 88 nM
- GIC50 [30]: 26 nM
- GIC50 [31]: 30 nM
